Reference: the supplement of paper PMC7666118
Some of the results follow.

Amino acid sequences for entries named in this document (tags omitted). A change or cut given only in a name is not applied to a line headed by its entry.
UniProt Q16670: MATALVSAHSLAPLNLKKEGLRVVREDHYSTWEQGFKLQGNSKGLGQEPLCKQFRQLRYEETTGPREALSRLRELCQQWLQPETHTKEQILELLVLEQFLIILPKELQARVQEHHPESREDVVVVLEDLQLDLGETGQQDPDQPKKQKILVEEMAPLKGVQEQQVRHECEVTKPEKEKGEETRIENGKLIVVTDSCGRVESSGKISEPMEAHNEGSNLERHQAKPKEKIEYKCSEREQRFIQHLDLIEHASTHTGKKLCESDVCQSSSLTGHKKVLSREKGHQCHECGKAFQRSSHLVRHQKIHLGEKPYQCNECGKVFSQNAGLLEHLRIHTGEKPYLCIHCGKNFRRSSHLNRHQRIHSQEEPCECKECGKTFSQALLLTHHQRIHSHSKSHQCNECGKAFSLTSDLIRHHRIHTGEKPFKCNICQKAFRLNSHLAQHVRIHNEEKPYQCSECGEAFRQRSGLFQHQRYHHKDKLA
UniProt Q9GZM5: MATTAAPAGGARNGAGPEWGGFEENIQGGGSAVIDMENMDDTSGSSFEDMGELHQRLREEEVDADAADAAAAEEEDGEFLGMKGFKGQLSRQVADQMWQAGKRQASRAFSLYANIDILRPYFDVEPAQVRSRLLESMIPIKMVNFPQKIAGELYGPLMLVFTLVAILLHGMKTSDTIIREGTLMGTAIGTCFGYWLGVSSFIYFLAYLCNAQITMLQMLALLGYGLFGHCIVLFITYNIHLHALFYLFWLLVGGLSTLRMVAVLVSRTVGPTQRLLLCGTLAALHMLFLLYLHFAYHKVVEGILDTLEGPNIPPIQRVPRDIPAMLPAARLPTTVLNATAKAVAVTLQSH
UniProt Q96KR1: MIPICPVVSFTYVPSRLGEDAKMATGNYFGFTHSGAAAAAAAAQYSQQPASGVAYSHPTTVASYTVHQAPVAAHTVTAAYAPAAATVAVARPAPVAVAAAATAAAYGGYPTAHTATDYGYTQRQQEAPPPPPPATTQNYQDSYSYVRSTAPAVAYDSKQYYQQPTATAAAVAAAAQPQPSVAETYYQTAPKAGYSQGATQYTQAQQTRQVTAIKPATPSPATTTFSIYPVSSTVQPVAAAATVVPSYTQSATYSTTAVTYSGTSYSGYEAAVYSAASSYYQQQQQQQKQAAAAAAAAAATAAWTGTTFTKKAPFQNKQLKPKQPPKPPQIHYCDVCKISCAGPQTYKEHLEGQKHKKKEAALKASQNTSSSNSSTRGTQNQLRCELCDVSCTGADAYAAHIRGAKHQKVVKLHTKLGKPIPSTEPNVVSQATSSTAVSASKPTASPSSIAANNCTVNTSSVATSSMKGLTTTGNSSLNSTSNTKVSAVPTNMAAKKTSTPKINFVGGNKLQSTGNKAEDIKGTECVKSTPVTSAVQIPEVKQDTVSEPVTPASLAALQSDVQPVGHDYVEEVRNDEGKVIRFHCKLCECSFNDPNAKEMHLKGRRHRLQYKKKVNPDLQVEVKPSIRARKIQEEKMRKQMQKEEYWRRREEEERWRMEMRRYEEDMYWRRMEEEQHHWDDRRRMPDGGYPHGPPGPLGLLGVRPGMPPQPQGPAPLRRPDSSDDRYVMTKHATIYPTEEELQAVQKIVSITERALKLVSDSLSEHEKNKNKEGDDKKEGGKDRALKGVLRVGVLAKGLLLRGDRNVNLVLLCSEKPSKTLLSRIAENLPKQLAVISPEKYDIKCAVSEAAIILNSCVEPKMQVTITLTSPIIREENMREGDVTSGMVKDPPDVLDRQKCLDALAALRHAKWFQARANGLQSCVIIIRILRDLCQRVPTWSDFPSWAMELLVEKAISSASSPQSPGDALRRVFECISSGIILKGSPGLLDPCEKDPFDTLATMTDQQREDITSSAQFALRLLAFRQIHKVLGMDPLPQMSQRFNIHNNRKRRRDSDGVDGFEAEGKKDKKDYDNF
UniProt Q6ZS81: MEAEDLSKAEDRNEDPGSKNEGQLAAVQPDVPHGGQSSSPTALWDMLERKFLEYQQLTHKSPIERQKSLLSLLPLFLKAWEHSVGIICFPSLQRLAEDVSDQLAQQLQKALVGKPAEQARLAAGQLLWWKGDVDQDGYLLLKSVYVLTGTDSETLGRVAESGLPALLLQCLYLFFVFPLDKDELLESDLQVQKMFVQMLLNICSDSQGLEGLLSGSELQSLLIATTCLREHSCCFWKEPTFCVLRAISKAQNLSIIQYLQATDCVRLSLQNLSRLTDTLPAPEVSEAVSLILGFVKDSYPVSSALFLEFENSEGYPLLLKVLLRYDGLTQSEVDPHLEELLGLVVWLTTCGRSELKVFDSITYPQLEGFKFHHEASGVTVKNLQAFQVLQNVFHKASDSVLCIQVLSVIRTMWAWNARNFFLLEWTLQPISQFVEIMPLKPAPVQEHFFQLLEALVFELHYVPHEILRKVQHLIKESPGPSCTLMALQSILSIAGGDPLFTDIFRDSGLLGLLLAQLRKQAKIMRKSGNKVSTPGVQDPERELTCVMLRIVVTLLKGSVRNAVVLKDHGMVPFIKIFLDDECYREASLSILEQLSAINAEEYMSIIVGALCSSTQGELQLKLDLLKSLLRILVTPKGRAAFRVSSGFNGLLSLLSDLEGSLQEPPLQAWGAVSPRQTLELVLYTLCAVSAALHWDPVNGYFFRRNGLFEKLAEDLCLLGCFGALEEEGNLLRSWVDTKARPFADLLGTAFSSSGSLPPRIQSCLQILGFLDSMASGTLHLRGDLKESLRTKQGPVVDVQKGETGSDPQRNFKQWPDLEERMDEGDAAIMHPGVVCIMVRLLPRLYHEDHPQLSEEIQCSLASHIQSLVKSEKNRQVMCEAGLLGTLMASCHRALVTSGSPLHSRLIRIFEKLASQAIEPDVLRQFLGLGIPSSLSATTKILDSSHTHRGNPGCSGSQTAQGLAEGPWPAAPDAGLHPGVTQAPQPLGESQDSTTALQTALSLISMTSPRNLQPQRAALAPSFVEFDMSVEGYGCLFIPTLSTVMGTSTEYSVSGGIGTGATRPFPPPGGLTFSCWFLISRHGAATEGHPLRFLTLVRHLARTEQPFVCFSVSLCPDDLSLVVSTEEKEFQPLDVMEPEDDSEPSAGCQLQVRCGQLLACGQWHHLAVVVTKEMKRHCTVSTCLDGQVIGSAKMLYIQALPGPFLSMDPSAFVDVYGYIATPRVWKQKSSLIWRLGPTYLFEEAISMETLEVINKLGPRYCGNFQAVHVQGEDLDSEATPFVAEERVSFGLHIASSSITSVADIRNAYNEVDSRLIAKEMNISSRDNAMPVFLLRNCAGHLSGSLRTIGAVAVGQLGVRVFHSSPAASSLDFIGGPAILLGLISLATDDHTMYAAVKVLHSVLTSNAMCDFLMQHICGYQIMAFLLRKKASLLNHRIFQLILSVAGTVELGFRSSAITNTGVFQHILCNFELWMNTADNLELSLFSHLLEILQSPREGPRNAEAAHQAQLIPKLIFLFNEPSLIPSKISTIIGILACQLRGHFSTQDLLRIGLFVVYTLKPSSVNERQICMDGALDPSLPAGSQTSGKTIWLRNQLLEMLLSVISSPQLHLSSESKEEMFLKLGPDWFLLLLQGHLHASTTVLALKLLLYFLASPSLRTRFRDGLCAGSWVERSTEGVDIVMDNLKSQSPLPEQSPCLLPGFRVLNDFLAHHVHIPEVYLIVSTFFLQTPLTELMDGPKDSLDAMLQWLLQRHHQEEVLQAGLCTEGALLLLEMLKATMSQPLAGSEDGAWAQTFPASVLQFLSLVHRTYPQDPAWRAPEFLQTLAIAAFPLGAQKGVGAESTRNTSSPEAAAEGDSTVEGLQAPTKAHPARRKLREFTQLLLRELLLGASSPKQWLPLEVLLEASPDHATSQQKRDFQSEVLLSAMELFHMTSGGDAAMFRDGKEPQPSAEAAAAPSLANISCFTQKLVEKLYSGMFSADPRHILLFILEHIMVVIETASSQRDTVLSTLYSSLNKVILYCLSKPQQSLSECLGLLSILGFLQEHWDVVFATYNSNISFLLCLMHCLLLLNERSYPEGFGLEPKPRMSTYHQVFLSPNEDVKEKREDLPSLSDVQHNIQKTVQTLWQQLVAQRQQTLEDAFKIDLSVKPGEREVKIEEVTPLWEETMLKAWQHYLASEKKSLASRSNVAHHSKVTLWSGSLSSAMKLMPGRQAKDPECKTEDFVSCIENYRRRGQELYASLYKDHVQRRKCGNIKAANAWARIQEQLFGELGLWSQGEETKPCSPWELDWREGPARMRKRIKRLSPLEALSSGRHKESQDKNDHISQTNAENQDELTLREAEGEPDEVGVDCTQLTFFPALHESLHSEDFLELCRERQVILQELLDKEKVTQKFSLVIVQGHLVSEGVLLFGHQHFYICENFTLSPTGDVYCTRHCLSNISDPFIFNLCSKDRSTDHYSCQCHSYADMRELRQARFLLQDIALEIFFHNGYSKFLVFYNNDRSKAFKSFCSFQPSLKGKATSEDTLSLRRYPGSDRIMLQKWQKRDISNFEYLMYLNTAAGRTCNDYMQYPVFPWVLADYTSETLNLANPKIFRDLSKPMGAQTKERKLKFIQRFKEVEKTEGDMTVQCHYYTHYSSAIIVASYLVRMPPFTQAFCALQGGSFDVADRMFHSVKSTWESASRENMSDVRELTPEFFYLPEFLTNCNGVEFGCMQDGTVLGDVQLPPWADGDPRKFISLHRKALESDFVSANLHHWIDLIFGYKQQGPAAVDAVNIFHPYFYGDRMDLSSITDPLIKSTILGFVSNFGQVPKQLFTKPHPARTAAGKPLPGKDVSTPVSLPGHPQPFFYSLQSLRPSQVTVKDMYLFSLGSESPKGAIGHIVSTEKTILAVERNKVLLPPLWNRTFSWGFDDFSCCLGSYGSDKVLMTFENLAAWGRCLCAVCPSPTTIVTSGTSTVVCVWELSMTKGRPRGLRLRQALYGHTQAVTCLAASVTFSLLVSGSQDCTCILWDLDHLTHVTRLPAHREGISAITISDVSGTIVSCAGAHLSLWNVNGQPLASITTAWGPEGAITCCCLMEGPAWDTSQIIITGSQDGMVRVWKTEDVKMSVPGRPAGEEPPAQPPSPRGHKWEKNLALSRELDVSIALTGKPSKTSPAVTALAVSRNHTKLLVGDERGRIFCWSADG
UniProt Q9H967: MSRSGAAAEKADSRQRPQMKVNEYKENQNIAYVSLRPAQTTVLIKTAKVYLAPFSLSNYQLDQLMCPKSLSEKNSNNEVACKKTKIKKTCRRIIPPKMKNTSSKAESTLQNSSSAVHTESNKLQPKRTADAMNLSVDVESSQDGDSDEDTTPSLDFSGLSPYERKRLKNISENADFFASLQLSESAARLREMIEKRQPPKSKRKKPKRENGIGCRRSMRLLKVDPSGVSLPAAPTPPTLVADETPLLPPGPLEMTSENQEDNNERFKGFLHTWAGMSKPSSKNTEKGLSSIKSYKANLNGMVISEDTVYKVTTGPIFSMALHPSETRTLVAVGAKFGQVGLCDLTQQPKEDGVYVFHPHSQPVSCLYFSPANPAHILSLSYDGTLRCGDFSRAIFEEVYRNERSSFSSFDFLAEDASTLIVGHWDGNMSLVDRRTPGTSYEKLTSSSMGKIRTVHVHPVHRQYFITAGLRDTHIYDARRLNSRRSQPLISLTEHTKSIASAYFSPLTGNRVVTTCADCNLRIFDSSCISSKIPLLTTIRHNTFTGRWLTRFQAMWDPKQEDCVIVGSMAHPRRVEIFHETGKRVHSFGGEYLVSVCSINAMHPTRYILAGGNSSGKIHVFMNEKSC
UniProt Q8IUH4: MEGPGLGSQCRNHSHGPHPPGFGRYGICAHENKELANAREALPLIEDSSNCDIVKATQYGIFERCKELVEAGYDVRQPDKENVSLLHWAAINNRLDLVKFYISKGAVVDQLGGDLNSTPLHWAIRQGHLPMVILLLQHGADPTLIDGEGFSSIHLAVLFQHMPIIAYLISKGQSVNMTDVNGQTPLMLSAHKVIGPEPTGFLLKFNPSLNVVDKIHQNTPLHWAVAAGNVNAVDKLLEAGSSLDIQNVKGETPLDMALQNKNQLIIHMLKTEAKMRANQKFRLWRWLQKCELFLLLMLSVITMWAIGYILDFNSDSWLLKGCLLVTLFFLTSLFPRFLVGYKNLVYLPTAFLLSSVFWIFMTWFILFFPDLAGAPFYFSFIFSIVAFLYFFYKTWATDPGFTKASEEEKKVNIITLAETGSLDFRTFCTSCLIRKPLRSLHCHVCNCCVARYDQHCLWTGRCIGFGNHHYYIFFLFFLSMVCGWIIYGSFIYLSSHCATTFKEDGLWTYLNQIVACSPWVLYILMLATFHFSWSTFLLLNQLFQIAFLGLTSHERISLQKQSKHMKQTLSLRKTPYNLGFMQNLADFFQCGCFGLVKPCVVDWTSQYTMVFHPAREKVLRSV
UniProt Q96EC8: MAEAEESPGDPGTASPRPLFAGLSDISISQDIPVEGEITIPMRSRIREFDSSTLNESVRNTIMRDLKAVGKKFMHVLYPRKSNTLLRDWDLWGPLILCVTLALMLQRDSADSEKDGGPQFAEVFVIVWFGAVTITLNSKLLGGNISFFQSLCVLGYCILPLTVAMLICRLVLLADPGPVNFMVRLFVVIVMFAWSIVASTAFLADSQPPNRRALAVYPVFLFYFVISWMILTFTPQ

Compound: COc1ccc(Cn2ccc3ccc(C(=O)NO)cc32)cc1
Assay: dose-dependent thermal stabilisation call (2D-TPP, DLPTP, 10% FDR) (binary (1 = stabilised)); higher = stabilised by the compound
Conditions: system: HL-60 intact cells; concentration range 0.04-10 µM

Row | Target | dose-dependent thermal stabilisation call
1 | ZNF187 (UniProt Q16670) | inactive: 0
2 | ZFAND5 (UniProt O76080) | inactive: 0
3 | YIPF3 (UniProt Q9GZM5) | inactive: 0
4 | ZFR (UniProt Q96KR1) | inactive: 0
5 | WDR18 (UniProt Q9BV38) | inactive: 0
6 | ZMIZ2 (UniProt Q8NF64) | inactive: 0
7 | WDR36 (UniProt Q8NI36) | inactive: 0
8 | WDFY4 (UniProt Q6ZS81) | inactive: 0
9 | ZKSCAN4 (UniProt Q969J2) | inactive: 0
10 | WDR76 (UniProt Q9H967) | inactive: 0
11 | ZC3H10 (UniProt Q96K80) | inactive: 0
12 | VPRBP (UniProt Q9Y4B6) | inactive: 0
13 | WBP11 (UniProt Q9Y2W2) | inactive: 0
14 | WDR73 (UniProt Q6P4I2) | inactive: 0
15 | VDAC1 (UniProt P21796) | inactive: 0
16 | WDR46 (UniProt O15213) | inactive: 0
17 | WDSOF1 (UniProt Q9NV06) | inactive: 0
18 | VPS36 (UniProt Q86VN1) | inactive: 0
19 | WDR48 (UniProt Q8TAF3) | inactive: 0
20 | ZFYVE27 (UniProt Q5T4F4) | inactive: 0
21 | ZDHHC13 (UniProt Q8IUH4) | inactive: 0
22 | XPO1 (UniProt O14980) | inactive: 0
23 | ZCCHC8 (UniProt Q6NZY4) | inactive: 0
24 | YPEL5 (UniProt P62699) | inactive: 0
25 | VPS52 (UniProt Q8N1B4) | inactive: 0
26 | WTAP (UniProt Q15007) | inactive: 0
27 | YIPF6 (UniProt Q96EC8) | inactive: 0

In a second layout: results already given
Row	Target	dose-dependent thermal stabilisation call
20	ZFYVE27 (UniProt Q5T4F4)	inactive: 0
21	ZDHHC13 (UniProt Q8IUH4)	inactive: 0
22	XPO1 (UniProt O14980)	inactive: 0
23	ZCCHC8 (UniProt Q6NZY4)	inactive: 0
24	YPEL5 (UniProt P62699)	inactive: 0
